Measurements reported in PubChem BioAssay AID1259308 (NCATS, 2017).
Here is a random part of about 59,000 reagents. In the full data, about 1,510 (2.6%) are marked active. 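Calls use total luciferase alone and ignore viability, so some active siRNAs may act by altering cell number.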 The numbers tell different reagents against one gene apart. Not all columns of the deposit are shown.

Test: 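Candidate targets for better recombinant protein yield in mammalian cells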 (primary screen)
System: human HEK293 embryonic kidney cells stably expressing firefly luciferase (HEK-CMV-Luc2-Hygro)
Reagents: single siRNA against human genes, 0.8 pmol siRNA per well
Duration: 72 h
Measured: 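Luciferase light (ONE-Glo) measured on one replicate plate set and viability (CellTiter-Glo) on the other, scaled to a negative control siRNA, with robust z-scores and luciferase per cell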
Direction: total luciferase, z-score: higher = more reporter protein produced
Call rule: 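An siRNA counts as active if its total luciferase robust z-score exceeds 3; genes with two or more such siRNAs out of three were retested with fresh siRNAs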
Calls: active = raised luciferase; inactive = no rise

total luciferase, z-score, by target and reagent
ATP12A (ATPase H+/K+ transporting non-gastric alpha2 subunit): #1 1.08 inactive; #2 0.0419 inactive; #3 0.0311 inactive
NACC2 (NACC family member 2): #1 2.21 inactive; #2 0.0288 inactive; #3 -0.0618 inactive
NOTCH1 (notch receptor 1): #1 -1.2 inactive; #2 1.49 inactive; #3 0.0333 inactive
BDKRB2 (bradykinin receptor B2): #1 0.714 inactive; #2 2.25 inactive; #3 -0.502 inactive
STYX (serine/threonine/tyrosine interacting protein): #1 -0.162 inactive; #2 -0.414 inactive; #3 -0.218 inactive
LHFPL4 (LHFPL tetraspan subfamily member 4): #1 1.68 inactive; #2 -0.762 inactive; #3 0.266 inactive
RAI1 (retinoic acid induced 1): #1 0.582 inactive; #2 -0.398 inactive; #3 1.17 inactive
TIPIN (TIMELESS interacting protein): #1 0.191 inactive; #2 -0.702 inactive; #3 0.0256 inactive
DCPS (decapping enzyme, scavenger): #1 -0.245 inactive; #2 0.683 inactive; #3 2.64 inactive
ARL11 (ARF like GTPase 11): #1 -1.67 inactive; #2 -0.232 inactive; #3 0.524 inactive
NUDT12 (nudix hydrolase 12): #1 0.792 inactive; #2 -1.08 inactive; #3 0.0947 inactive
ADAMTS6 (ADAM metallopeptidase with thrombospondin type 1 motif 6): #1 1.97 inactive; #2 0.502 inactive; #3 0.207 inactive
LINC02499 (long independently transcribed non-coding RNA 2499): #1 -1.67 inactive; #2 -0.524 inactive; #3 0.0324 inactive
MERTK (MER proto-oncogene, tyrosine kinase): #1 0.708 inactive; #2 -0.966 inactive; #3 -0.0148 inactive
CCL13 (C-C motif chemokine ligand 13): #1 -0.182 inactive; #2 1.14 inactive; #3 0.692 inactive
H2BC11 (H2B clustered histone 11): #1 -0.196 inactive; #2 -1.97 inactive; #3 2.25 inactive
TAF11L1: #1 0.671 inactive; #2 0.236 inactive; #3 1.39 inactive
OSBPL6 (oxysterol binding protein like 6): #1 0.54 inactive; #2 0.249 inactive; #3 0.331 inactive
NOL4L-DT (NOL4L divergent transcript): #1 1.47 inactive; #2 -2.22 inactive; #3 0.989 inactive

Targets listed so far whose target name begins with T or t (6):
total luciferase, z-score, by target and reagent
TIPIN (TIMELESS interacting protein): #1 0.191 inactive; #2 -0.702 inactive; #3 0.0256 inactive
TAF11L1: #1 0.671 inactive; #2 0.236 inactive; #3 1.39 inactive
